Results on 32 molecules are retold here after the supplement of paper PMC12889115.

The list shows a part of the results. These are raw signals, not scaled to a control.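 In the initial screen, polymyxin B was used at a concentration that permeabilizes Salmonella's outer membrane but not its inner membrane. Maximum growth was set by DMSO wells with or without polymyxin B. Since plates varied, data were ranked per plate, and compounds giving the lowest OD600 advanced as hits.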

The test system of this assay is Salmonella enterica serovar Typhimurium SL1344. The experiment in a line: bacterial growth OD600 after 18 h with compound and polymyxin B; higher = more bacterial growth (less inhibition). Particulars: 50 µM, Mueller-Hinton broth.

Turning to `COc1cccc(CC(C2CCN(Cc3cccc(OC)c3O)CC2)N(C)C(=O)c2ccco2)c1` (configuration not stated), for the setting “polymyxin B 0.75 µg/mL”, the “bacterial growth OD600” value was 0.97.

Take `O=C(NCc1ccco1)N1CCc2onc(-c3ccc4c(c3)OCO4)c2C1`: the “bacterial growth OD600” value (polymyxin B 0.75 µg/mL) is 0.882.

On to `COc1ccc(Cl)cc1NC(=O)CCC1CCCN(C(=O)CCc2scnc2C)C1` (configuration not stated), for which the “bacterial growth OD600” value (polymyxin B 1 µg/mL) is 1.07.

For the molecule `CCOC(=O)CC1COCCN1C(=O)c1cc(COc2ccccc2SC)on1` (configuration not stated), the “bacterial growth OD600” value (polymyxin B 1 µg/mL) worked out at 0.907.

`O=C(Nc1ccc(Oc2cccnc2)cc1)C1CCN(Cc2cccc(Cl)c2)CC1`: the “bacterial growth OD600” value (polymyxin B 1 µg/mL) was 0.006.

As for `CCN(CC1CCN(C2CCN(C)CC2)CC1)C(=O)/C=C/c1ccc(OC)c(OC)c1`, under “polymyxin B 1 µg/mL”, the “bacterial growth OD600” value was found to be 0.989.

Turning to `C#Cc1ccc(CN2CCN(Cc3ccc(OC)c(C)c3)C(CCO)C2)cc1` (configuration not stated), where the note is “polymyxin B 1 µg/mL”, the “bacterial growth OD600” value stood at 0.937.

With `CCn1c(-c2cccnc2)nc2cc(NC(=O)COC)cc(C(=O)NCc3cc(F)ccc3C)c21`, the “bacterial growth OD600” value (polymyxin B 0.75 µg/mL) worked out at 0.841.

With `COc1cccc(OCc2nc(C(=O)NCc3ccc(F)cc3)co2)c1`, under “polymyxin B 1 µg/mL”, the “bacterial growth OD600” value is 0.799.

In the case of `C=CCOc1ccccc1CN1CCC(C2(CCc3ccccc3)NC(=O)N(CC#CC)C2=O)CC1` (configuration not stated), under “polymyxin B 0.75 µg/mL”, the “bacterial growth OD600” value is 0.782.

Take `Cc1ncc2c(c1CNC(=O)/C=C/c1cccs1)CCN(C(=O)Cc1ccc(F)c(F)c1)C2`: the “bacterial growth OD600” value (polymyxin B 0.75 µg/mL) was found to be 0.663.

As to `COCC1CCCCN1C(=O)c1cc(COc2ccc3c(c2)OCO3)[nH]n1` (configuration not stated), the “bacterial growth OD600” value (polymyxin B 1 µg/mL) was 0.936.

With `CN(CC1CCCCO1)C(=O)c1coc(COc2ccc(F)cc2Cl)n1` (configuration not stated), under “polymyxin B 1 µg/mL”, the “bacterial growth OD600” value was 0.91.

On to `CCc1csc(CNC(=O)c2ccc(N3CCC(N(C)C)C3)nc2)n1` (configuration not stated), for which the “bacterial growth OD600” value (polymyxin B 0.75 µg/mL) turned out to be 0.832.

On to `CC(C)CCn1c(CN2CCN(C3CCCC3)CC2)cnc1S(=O)(=O)C(C)C`, for which, under “polymyxin B 1 µg/mL”, the “bacterial growth OD600” value was found to be 0.994.

For the molecule `O=C1N(Cc2cccc(F)c2F)CCCC1(O)CNCc1ccc(F)cc1` (configuration not stated), the “bacterial growth OD600” value (polymyxin B 1 µg/mL) was found to be 1.01.

As for `Cc1cc(CN(C)C(=O)CC(c2ccccc2)c2ccccc2Cl)n[nH]1` (configuration not stated), where the note is “polymyxin B 1 µg/mL”, the “bacterial growth OD600” value turned out to be 0.666.

For `CCN(CCn1cccn1)Cc1nc(-c2ccc(C(=O)OC)cc2)oc1C`, for the setting “polymyxin B 1 µg/mL”, the “bacterial growth OD600” value worked out at 0.814.

Turning to `O=C(NCCCCCN1CCOCC1)C1CCC(=O)N(C2CCCC2)C1` (configuration not stated), the “bacterial growth OD600” value (polymyxin B 1 µg/mL) is 0.953.

As for `Cc1cccc(CC(=O)NCC2Cc3cc(-c4nc(C)cnc4C)ccc3O2)c1` (configuration not stated), the “bacterial growth OD600” value (polymyxin B 0.75 µg/mL) stood at 0.849.

On to `COc1cccc(CN2CCCC3(CCN(Cc4cnc(OC)nc4)C3)C2=O)c1` (configuration not stated), for which the “bacterial growth OD600” value (polymyxin B 1 µg/mL) was 0.785.

Turning to `CCC1CN(CCNC(=O)C(C)n2cncn2)Cc2cc(OC)ccc2O1` (configuration not stated), the “bacterial growth OD600” value (polymyxin B 0.75 µg/mL) is 0.841.

As for `CC(C)CN1CCC(CNc2nncc(-c3ccccc3F)n2)CC1`, the “bacterial growth OD600” value (polymyxin B 0.75 µg/mL) was 0.692.

As for `COCCN1C(=O)CC(CC(=O)NCCc2ccc(OC)c(OC)c2)(c2ccccc2C)C1=O` (configuration not stated), the “bacterial growth OD600” value (polymyxin B 0.75 µg/mL) worked out at 0.862.

`CC(NC(=O)C1CC(Cc2ccc3c(c2)OCO3)=NO1)c1cnn(-c2ccccc2)c1` (configuration not stated): the “bacterial growth OD600” value (polymyxin B 0.75 µg/mL) is 0.72.

In the case of `O=C(C1CCCC1)N1CCc2[nH]nc(-c3ccc(Cl)cc3)c2C1`, the “bacterial growth OD600” value (polymyxin B 0.75 µg/mL) was found to be 0.891.

As for `CCS(=O)(=O)c1ncc(CN(C)CCOC)n1CCc1ccccc1`, for the setting “polymyxin B 1 µg/mL”, the “bacterial growth OD600” value is 1.22.

For `CCOCCCNC(=O)C1CCC(=O)N(CCc2cccc(F)c2)C1` (configuration not stated), the “bacterial growth OD600” value (polymyxin B 1 µg/mL) was determined as 1.03.

`COCCNC(=O)c1ccc(OC)cc1OC1CCN(Cc2ccccc2Cl)CC1`: the “bacterial growth OD600” value (polymyxin B 1 µg/mL) amounted to 1.16.

With `Cc1n[nH]c(C)c1CNC(=O)CC(c1cccc(Cl)c1)c1ccccc1O` (configuration not stated), the “bacterial growth OD600” value (polymyxin B 1 µg/mL) turned out to be 0.888.

For `COc1ccc(F)c(CC2(CCC(=O)NCCc3ccc(F)cc3)CCC(=O)N2)c1` (configuration not stated), the “bacterial growth OD600” value (polymyxin B 0.75 µg/mL) came to 0.821.

With `Cc1cccc(C)c1Oc1ncccc1CNC(=O)Cc1ccc2c(c1)OCO2`, where the note is “polymyxin B 1 µg/mL”, the “bacterial growth OD600” value is 0.826.
